Measurements published in publication doi:10.1101/2023.05.22.23289895.

By UniProt entry, the sequences of proteins in these tests, tags left out.
UniProt Q15911: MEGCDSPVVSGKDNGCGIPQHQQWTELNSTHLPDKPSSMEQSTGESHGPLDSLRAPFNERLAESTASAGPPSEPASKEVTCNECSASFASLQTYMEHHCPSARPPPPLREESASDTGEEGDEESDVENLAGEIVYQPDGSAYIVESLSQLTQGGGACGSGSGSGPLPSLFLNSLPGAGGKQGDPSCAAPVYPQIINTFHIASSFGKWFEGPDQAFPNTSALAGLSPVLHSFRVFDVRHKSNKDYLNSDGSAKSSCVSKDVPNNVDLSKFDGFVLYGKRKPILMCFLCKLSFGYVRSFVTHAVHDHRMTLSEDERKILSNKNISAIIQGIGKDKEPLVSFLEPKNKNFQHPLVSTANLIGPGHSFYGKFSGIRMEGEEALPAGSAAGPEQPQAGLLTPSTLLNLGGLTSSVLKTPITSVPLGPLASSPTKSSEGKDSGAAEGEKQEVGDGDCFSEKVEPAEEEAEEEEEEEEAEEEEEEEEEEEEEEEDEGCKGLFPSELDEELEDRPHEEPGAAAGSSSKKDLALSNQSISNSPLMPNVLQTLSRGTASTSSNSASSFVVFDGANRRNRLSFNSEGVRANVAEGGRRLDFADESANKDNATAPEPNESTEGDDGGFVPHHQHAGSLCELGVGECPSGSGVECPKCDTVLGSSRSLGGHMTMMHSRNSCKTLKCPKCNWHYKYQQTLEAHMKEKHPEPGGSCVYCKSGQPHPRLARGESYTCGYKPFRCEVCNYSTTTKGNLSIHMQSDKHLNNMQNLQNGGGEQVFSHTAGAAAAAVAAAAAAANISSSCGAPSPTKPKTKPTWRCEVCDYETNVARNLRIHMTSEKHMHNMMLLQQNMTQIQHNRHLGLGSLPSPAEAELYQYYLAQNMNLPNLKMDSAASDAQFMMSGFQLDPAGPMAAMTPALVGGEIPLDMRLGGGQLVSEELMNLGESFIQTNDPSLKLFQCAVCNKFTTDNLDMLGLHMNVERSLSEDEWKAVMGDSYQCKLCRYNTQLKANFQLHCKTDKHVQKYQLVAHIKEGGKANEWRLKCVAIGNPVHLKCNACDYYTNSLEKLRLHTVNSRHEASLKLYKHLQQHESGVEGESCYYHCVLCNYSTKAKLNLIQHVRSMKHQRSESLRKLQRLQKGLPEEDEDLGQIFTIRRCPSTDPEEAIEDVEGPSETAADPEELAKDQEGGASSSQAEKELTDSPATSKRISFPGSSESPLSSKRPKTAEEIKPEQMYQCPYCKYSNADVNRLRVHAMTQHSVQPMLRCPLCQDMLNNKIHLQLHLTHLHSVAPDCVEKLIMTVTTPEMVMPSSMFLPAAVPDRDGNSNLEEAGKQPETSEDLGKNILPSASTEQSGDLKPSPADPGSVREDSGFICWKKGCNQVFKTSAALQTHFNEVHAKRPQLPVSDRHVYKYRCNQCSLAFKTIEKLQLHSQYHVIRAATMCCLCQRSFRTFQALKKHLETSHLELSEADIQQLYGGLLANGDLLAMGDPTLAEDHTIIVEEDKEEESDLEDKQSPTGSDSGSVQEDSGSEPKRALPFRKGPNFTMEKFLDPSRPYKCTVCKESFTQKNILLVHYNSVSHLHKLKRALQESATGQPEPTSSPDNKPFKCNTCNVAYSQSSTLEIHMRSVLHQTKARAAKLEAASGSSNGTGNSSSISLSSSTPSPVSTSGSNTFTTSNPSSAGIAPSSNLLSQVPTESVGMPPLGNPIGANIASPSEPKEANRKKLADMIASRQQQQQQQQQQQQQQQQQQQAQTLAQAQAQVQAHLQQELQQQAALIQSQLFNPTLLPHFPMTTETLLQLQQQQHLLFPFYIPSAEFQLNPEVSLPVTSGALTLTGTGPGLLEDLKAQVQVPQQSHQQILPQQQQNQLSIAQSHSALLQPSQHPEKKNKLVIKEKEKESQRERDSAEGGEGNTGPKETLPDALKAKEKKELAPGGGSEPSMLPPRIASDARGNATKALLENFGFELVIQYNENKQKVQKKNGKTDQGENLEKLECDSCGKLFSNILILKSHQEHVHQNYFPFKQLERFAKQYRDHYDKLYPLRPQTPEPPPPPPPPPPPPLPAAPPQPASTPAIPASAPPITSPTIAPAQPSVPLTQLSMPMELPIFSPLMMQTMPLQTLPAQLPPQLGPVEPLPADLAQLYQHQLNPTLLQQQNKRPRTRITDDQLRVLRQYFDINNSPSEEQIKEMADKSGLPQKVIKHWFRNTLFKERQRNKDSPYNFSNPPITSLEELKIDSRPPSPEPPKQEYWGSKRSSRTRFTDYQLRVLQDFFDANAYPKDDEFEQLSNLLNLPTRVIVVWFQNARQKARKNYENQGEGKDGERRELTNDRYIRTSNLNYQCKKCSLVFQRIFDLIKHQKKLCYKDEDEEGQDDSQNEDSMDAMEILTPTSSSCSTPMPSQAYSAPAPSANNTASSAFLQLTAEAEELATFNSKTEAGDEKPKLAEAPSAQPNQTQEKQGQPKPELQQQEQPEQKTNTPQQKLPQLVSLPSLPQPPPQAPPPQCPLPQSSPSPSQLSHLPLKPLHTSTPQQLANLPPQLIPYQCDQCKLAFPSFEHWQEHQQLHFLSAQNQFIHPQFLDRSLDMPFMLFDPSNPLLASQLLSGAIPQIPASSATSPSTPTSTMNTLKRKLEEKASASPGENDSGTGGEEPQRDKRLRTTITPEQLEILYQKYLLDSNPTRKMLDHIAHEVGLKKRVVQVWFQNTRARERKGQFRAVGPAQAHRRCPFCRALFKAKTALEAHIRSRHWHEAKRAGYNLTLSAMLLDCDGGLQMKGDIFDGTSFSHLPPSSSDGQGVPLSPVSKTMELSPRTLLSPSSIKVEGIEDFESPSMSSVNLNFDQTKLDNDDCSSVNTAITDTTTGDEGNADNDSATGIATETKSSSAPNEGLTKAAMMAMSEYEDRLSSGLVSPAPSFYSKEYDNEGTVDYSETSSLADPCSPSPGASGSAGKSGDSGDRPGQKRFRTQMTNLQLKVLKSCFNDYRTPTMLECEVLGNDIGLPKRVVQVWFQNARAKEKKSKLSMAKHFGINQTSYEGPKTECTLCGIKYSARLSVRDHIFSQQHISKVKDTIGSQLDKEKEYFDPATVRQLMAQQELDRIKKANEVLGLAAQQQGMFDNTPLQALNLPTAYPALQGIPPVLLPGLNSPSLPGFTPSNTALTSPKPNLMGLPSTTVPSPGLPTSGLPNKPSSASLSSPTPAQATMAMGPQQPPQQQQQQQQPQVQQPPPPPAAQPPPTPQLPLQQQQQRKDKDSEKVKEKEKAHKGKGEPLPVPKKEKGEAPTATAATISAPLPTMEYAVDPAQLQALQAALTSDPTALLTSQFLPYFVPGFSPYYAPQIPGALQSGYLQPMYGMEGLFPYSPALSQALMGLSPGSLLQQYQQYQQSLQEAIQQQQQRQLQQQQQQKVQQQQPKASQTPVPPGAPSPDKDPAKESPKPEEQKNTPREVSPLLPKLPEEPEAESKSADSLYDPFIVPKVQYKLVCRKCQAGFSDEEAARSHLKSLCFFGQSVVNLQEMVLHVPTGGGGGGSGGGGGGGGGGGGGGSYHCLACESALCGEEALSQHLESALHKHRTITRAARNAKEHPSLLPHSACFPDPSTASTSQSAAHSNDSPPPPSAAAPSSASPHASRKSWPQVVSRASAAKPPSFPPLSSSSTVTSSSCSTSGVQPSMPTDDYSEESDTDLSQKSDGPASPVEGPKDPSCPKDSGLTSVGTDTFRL
UniProt Q12824: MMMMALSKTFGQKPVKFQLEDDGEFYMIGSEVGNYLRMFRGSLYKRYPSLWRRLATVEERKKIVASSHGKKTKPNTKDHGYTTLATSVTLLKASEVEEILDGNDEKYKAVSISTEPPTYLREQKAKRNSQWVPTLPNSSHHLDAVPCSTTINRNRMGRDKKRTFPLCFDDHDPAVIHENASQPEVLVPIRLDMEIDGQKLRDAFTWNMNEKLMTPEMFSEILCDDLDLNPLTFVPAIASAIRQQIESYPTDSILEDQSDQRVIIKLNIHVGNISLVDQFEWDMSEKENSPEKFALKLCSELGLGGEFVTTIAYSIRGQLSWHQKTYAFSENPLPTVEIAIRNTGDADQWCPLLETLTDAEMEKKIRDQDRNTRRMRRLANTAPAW

Target: Zinc Finger Homeobox 3 (ZFHX3), endogenous (human (endogenous in SH-SY5Y and NSCs)) (UniProt Q15911)
Assay: affinity purification with mass spectrometry

| Molecule | binding |
| --- | --- |
| SMARCB1 (subunit of the BAF complex), endogenous (from UniProt Q12824 1-385) | binds |
| CPSF2 (subunit of CP complex), endogenous (protein, UniProt Q9P2I0 1-782) MTSIIKLTTLSGVQEESALCYLLQVDEFRFLLDCGWDEHFSMDIIDSLRKHVHQIDAVLLSHPDPLHLGALPYAVGKLGLNCAIYATIPVYKMGQMFMYDLYQSRHNTEDFTLFTLDDVDAAFDKIQQLKFSQIVNLKGKGHGLSITPLPAGHMIGGTIWKIVKDGEEEIVYAVDFNHKREIHLNGCSLEMLSRPSLLITDSFNATYVQPRRKQRDEQLLTNVLETLRGDGNVLIAVDTAGRVLELAQLLDQIWRTKDAGLGVYSLALLNNVSYNVVEFSKSQVEWMSDKLMRCFEDKRNNPFQFRHLSLCHGLSDLARVPSPKVVLASQPDLECGFSRDLFIQWCQDPKNSIILTYRTTPGTLARFLIDNPSEKITEIELRKRVKLEGKELEEYLEKEKLKKEAAKKLEQSKEADIDSSDESDIEEDIDQPSAHKTKHDLMMKGEGSRKGSFFKQAKKSYPMFPAPEERIKWDEYGEIIKPEDFLVPELQATEEEKSKLESGLTNGDEPMDQDLSDVPTKCISTTESIEIKARVTYIDYEGRSDGDSIKKIINQMKPRQLIIVHGPPEASQDLAECCRAFGGKDIKVYMPKLHETVDATSETHIYQVRLKDSLVSSLQFCKAKDAELAWIDGVLDMRVSKVDTGVILEEGELKDDGEDSEMQVEAPSDSSVIAQQKAMKSLFGDDEKETGEESEIIPTLEPLPPHEVPGHQSVFMNEPRLSDFKQVLLREGIQAEFVGGVLVCNNQVAVRRTETGRIGLEGCLCQDFYRIRDLLYEQYAIV | binds |

Results are given in words; binding and its absence hold for the method and conditions named. In cells and extracts the contact can be indirect. A yes stands for co-enrichment or nearness to the bait. Other partners may have been found.
